# From PMC12865202
# By UniProt entry, the sequences of proteins in these tests, tags left out.
# UniProt Q15759: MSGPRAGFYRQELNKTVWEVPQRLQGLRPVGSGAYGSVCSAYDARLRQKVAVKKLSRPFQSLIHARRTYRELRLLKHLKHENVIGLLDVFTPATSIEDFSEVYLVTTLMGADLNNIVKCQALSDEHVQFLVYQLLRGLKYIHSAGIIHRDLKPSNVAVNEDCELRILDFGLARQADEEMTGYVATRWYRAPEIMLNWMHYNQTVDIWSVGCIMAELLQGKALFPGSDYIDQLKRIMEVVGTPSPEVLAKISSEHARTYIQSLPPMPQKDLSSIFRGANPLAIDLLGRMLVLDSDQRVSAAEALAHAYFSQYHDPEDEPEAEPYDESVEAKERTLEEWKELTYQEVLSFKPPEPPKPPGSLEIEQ
# These are yes or no findings as the source states them, for the method shown. Binding seen in cells or lysates may run through a third protein. These calls come from enrichment with a bait or labelling near it, and not all partners need be listed.
# B1: MAP2K4 (enzyme, UniProt P45985 1-399)
# chain: MAAPSPSGGGGSGGGSGSGTPGPVGSPAPGHPAVSSMQGKRKALKLNFANPPFKSTARFTLNPNPTGVQNPHIERLRTHSIESSGKLKISPEQHWDFTAEDLKDLGEIGRGAYGSVNKMVHKPSGQIMAVKRIRSTVDEKEQKQLLMDLDVVMRSSDCPYIVQFYGALFREGDCWICMELMSTSFDKFYKYVYSVLDDVIPEEILGKITLATVKALNHLKENLKIIHRDIKPSNILLDRSGNIKLCDFGISGQLVDSIAKTRDAGCRPYMAPERIDPSASRQGYDVRSDVWSLGITLYELATGRFPYPKWNSVFDQLTQVVKGDPPQLSNSEEREFSPSFINFVNLCLTKDESKRPKYKELLKHPFILMYEERAVEVACYVCKILDQMPATPSSPMYVD
# Molecular target: SidBait-p38β (UniProt Q15759)
# Assay: proximity labelling; only the target purified
binder,measurement,value
B1,binding,binds
